From patent publication US20140314790A1, “CASPASE 9 INHIBITION AND BRI2 PEPTIDES FOR TREATING DEMENTIA” (ALBERT EINSTEIN COLLEGE OF MEDICINE OF YESHIVA UNIVERSITY, priority 2011, published 2014)
Results are given in words; binding and its absence hold for the method and conditions named. Some entries that bind do so weakly or less than the wild type. For some assays here: Sequences can lack the tags named with a protein.

The chains behind the UniProt entries cited, without tags or fusion partners. Residues count along the entry.
UniProt P05067, residues 18-770: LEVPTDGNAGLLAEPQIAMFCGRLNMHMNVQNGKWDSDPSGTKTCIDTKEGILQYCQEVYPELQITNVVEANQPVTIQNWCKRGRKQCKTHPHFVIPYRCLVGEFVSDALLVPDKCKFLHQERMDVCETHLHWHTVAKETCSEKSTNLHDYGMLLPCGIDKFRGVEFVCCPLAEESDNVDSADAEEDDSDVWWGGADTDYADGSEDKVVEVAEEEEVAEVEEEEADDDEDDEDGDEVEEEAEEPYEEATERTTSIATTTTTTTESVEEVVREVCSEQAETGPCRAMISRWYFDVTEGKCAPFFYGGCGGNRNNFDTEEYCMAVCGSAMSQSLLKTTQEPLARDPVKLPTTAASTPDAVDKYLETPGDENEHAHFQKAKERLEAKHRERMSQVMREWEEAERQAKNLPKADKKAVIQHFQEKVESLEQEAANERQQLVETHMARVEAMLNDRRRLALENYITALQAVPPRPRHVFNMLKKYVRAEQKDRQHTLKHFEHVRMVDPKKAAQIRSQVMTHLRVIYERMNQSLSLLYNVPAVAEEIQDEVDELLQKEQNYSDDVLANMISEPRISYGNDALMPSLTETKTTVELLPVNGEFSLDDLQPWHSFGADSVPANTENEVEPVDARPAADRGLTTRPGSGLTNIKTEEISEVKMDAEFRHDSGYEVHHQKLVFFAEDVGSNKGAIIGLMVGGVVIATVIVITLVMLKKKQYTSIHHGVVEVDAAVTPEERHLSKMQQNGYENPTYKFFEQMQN
UniProt P12023, residues 18-770: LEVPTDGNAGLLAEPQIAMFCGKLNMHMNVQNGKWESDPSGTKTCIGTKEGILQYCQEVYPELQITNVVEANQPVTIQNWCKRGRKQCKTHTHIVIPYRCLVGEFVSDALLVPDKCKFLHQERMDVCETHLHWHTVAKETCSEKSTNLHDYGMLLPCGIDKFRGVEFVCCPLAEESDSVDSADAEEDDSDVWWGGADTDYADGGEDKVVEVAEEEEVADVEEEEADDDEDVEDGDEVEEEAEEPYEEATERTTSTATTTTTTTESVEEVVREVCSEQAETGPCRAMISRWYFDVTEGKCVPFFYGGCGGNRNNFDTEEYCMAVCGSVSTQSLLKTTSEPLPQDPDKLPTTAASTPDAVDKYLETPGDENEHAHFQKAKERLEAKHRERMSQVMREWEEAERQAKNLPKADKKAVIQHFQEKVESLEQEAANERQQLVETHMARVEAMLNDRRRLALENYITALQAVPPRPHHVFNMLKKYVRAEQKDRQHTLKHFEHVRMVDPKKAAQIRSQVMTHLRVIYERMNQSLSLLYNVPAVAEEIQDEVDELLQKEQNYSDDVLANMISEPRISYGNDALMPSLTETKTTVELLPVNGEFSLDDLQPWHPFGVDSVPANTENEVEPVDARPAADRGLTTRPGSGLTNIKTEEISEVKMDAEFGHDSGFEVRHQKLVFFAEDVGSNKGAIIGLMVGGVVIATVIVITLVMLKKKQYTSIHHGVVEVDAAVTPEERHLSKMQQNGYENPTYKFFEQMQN

Assays:
[1] = molecular target: amyloid precursor protein (APP), transfected into HeLa or HEK293 cells (UniProt P05067); test: competition with 40 µM N3-2A-F on HeLa/APP cells, α-Flag IP, Western blot
[2] = molecular target: amyloid precursor protein (APP), transfected into HeLa or HEK293 cells (UniProt P05067); test: α-Flag IP from HeLa/APP cells incubated with Flagged peptides, Western blot
[3] = molecular target: amyloid precursor protein (APP), transfected into HeLa or HEK293 cells (UniProt P05067); test: α-Flag-agarose precipitation from HeLa-APP cells cultured 2 hrs with peptide, elution with Flag peptide, Western blot
[4] = molecular target: endogenous APP of mouse brain cells (mouse) (UniProt P12023); test: α-Flag IP from cultured mouse brain cells incubated with peptide, Western blot
[5] = molecular target: amyloid precursor protein (APP), transfected into HeLa or HEK293 cells (UniProt P05067); test: surface-biotinylated HeLa-APP cells, α-Flag IP, then streptavidin-bead precipitation, Western blot

binding [1]	binding [2]	binding [3]	binding [4]	binding [5]	Binder
binds					DAVYYCGLKY [N3-2A, Modulator of β-cleavage of APP (MoBA)]
	binds	binds	binds	binds	DAVYYCGLKY (peptide, not shown: small tags and cut ends) [N3-2A fused to a C-terminal Flag epitope (N3-2A-F)]
